1 substance from PMC10746205 can be followed below.

Amino acid sequences for entries named in this document (tags omitted).
UniProt Q9MZ16: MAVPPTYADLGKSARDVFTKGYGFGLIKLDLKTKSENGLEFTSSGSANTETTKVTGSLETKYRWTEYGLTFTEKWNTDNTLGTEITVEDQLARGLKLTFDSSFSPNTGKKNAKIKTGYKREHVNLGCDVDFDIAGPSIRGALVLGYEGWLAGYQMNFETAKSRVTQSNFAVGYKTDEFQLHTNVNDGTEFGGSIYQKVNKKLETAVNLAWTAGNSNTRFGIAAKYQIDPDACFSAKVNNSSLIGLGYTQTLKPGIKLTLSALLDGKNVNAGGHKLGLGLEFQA

Results are given in words; binding and its absence hold for the method and conditions named. Binding seen in cells or lysates may run through a third protein. Some binding calls cover weakened binding; strength is not graded here.

For the assay, the target named is voltage-dependent anion channel 1, endogenous in porcine lung (pig (endogenous in porcine lung)) (UniProt Q9MZ16). Put plainly: cross-linking; VDAC1 oligomerization assay: lung tissue of mock-infected or PRRSV-infected pigs; pellets in CHAPS buffer with 2 mM DSS, 37°C, 20 min; SDS-PAGE and immunoblotting. In general terms: Immunoblotting shows a protein as a band on a membrane.

In the case of “voltage-dependent anion channel 1, endogenous in porcine lung (from UniProt Q9MZ16 1-283)”, the binding entry is on record as “binds”.
